Measurements: patent US20100311661A1, “USE OF COMPOUNDS DERIVED FROM CYCLOHEXIMIDE FOR THE TREATMENT OR PREVENTION OF, IN PARTICULAR, ISCHAEMIAS AND CARDIOPATHIES” (Max Planck Gesellschaft Zur Forderung Der Wissenschaften …, priority 2007, published 2010)
At least one compound was matched to its structure with a doubt left.

Tested on: adult heart cells
Conditions: 18 hours at 0.2% oxygen; FIG. 1

`CO[C@H]1C[C@@H]2CC[C@@H](C)[C@@](O)(O2)C(=O)C(=O)N2CCCC[C@H]2C(=O)O[C@H]([C@H](C)C[C@@H]2CC[C@@H](O)[C@H](OC)C2)CC(=O)[C@H](C)/C=C(\C)[C@@H](O)[C@@H](OC)C(=O)[C@H](C)C[C@H](C)/C=C/C=C/C=C/1C` [rapamycin] was tested, and the “influence on the percentage apoptosis” value was “does not influence the percentage apoptosis”.
